Earlier results as cited in patent US11123091B2, “Device and methods for treating paranasal sinus conditions” (Intersect ENT, Inc., priority 2005, dated 2021).
Some entries share one result that the patent states for a list of compounds.

Test system: cultured human airway epithelial cells
Details: in most cases

**Q.** Which “drug concentration of maximal transcriptional response” value does the source give for `C[C@@H]1C[C@H]2[C@@H]3CCC4=CC(=O)C=C[C@]4(C)[C@@]3(Cl)[C@@H](O)C[C@]2(C)[C@@]1(OC(=O)c1ccco1)C(=O)CCl` [mometasone furoate] here?
**A.** ≤ 10^−9 M

**Q.** Which “drug concentration of maximal transcriptional response” value does the source give for `CCC(=O)O[C@]1(C(=O)SCF)[C@H](C)C[C@H]2[C@@H]3C[C@H](F)C4=CC(=O)C=C[C@]4(C)[C@@]3(F)[C@@H](O)C[C@@]21C` [fluticasone propionate] here?
**A.** ≤ 10^−9 M
